Measured values reported in US4113736A, “2-Phenyl-indole derivatives” (priority 1975, dated 1978).
“And” between values parts separate entries of the source, which are not always exact repeats. Equal values may be shown once.

Legend:
[1] = Static thermostability of stabilized polyvinyl chloride resin, GARDNER Scale comparator, 185° C.
Description: The stabilizing power of the substances of the invention was studied by determining the static thermostability of the following resin: […]
Polyvinyl chloride resin
Calcium-12-hydroxy-stearate
Stabilizer from 0.1 to 1
SL 2016 represents a solution of zinc-2-ethyl-hexanoate in a mixture of aromatic hydrocarbons boiling between 158° and 184° C.
The different ingredients were mixed and calendered in a mixer of which the cylinders were heated to 160° C.
The rigid sheets so obtained were then heated in a oven to a temperature of 185° or 210° C., until incipient carbonization.
A oven with a rotating drum, ventilated and equipped with a thermostat was used for this operation.
In the trials described hereunder the behaviour of the sheets containing one of the stabilizers to be tested was compared to that of sheets of the same formula but containing 2-phenyl-indole as stabilizer.
Comparison can be made by one of two methods, namely:
(1) The coloration of the sheets, of which samples were removed from the oven at fixed intervals, was compared to a standard scale of coloration, known as the GARDNER Scale, and expressed in terms of the reference figures of the GARDNER Scale.
Comparisons were made with a GARDNER Scale comparator which contains 18 filters of colored glass and which offers the possibility of observing simultaneously by transparency and in a limited field of view both the sheet and the reference filters.
It may happen that the color of the sheets is far removed from that of the GARDNER Scale, in which case comparison is difficult, if not impossible.
The following results were obtained at a temperature of 185° C., using the method described above: […]

[2] = Static thermostability of stabilized polyvinyl chloride resin, simplified method with GARDNER sub-scale, 210° C.

c1ccc(-c2cc3ccccc3[nH]2)cc1 [2-phenyl-indole]
Coloration of the sheets ([1]; 0 minutes): 1 GARDNER degrees
Coloration of the sheets ([1]; 6 minutes): 2 GARDNER degrees and 1 GARDNER degrees
Coloration of the sheets ([1]; 12 minutes): 5 GARDNER degrees and 4 GARDNER degrees and 3 GARDNER degrees
Coloration of the sheets ([1]; 18 minutes): 8 GARDNER degrees and 9 GARDNER degrees and 7 GARDNER degrees and 5 GARDNER degrees
Coloration of the sheets ([1]; 24 minutes): 12 GARDNER degrees and 11 GARDNER degrees and 10 GARDNER degrees
Coloration of the sheets ([1]; 30 minutes): 13 GARDNER degrees and 14 GARDNER degrees and 15 GARDNER degrees and 11 GARDNER degrees
Coloration of the sheets ([1]; 36 minutes): 15 GARDNER degrees and 14 GARDNER degrees and 13 GARDNER degrees
Coloration of the sheets ([1]; 42 minutes): 15 GARDNER degrees and 16 GARDNER degrees and 14 GARDNER degrees and 13 GARDNER degrees
Coloration of the sheets ([1]; 48 minutes): 16 GARDNER degrees and 15 GARDNER degrees
Coloration of the sheets ([1]; 54 minutes): 16 GARDNER degrees and 17 GARDNER degrees and 18 GARDNER degrees and 15 GARDNER degrees
Coloration of the sheets ([1]; 60 minutes): burnt
Coloration of the sheets ([2]; 0 minutes): 1 GARDNER degrees
Coloration of the sheets ([2]; 3 minutes): 2 GARDNER degrees and 1 GARDNER degrees
Coloration of the sheets ([2]; 6 minutes): 3 GARDNER degrees and 2 GARDNER degrees
Coloration of the sheets ([2]; 12 minutes): 11 GARDNER degrees and 10 GARDNER degrees and 12 GARDNER degrees
Coloration of the sheets ([2]; 15 minutes): 13 GARDNER degrees and 12 GARDNER degrees and 19 GARDNER degrees
Coloration of the sheets ([2]; 18 minutes): burnt
